According to PMC5430073:
Where a chain is given by its changes, count along the chain named. Names and notes keep the numbering of the source. Results are given in words; binding and its absence hold for the method and conditions named. In cells and extracts the contact can be indirect. Some entries that bind do so weakly or less than the wild type. Tags and fused reporters may be left off the sequences shown. Each block holds one binder with its values, some of them ahead of it.

Assays:
[1] = target: T1, eGFP-ClC-Kb (human) (UniProt P51801); assay: co-IP; Lysates (ComplexioLyte-47a) of co-transfected HEK293T cells; monoclonal anti-GFP antibody and protein G beads capture eGFP-CLC-K; elution with SDS loading buffer; co-eluted barttin-mCherry detected by fluorescence scan of a 10% SDS gel; control without antibody
T1 sequence: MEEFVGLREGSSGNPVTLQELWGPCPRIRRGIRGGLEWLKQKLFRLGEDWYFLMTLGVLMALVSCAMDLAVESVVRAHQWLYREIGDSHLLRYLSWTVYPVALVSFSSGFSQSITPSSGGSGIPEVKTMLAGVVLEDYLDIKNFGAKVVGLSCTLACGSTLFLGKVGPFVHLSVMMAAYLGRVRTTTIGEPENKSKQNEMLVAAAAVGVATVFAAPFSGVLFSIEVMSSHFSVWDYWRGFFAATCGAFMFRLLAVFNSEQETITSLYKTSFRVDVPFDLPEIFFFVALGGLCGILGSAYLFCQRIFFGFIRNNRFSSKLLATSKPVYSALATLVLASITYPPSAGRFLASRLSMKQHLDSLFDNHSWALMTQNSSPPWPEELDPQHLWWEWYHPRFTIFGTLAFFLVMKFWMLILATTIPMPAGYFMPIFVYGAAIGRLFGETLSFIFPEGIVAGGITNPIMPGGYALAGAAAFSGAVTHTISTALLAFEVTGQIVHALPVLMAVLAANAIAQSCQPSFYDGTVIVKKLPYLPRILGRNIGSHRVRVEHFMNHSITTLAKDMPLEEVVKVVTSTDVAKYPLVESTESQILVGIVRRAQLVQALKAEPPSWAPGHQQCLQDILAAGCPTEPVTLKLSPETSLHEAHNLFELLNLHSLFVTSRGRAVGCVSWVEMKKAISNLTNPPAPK

[2] = target: T2, eGFP-ClC-Ka (human) (UniProt P51800); assay: as above
T2 sequence: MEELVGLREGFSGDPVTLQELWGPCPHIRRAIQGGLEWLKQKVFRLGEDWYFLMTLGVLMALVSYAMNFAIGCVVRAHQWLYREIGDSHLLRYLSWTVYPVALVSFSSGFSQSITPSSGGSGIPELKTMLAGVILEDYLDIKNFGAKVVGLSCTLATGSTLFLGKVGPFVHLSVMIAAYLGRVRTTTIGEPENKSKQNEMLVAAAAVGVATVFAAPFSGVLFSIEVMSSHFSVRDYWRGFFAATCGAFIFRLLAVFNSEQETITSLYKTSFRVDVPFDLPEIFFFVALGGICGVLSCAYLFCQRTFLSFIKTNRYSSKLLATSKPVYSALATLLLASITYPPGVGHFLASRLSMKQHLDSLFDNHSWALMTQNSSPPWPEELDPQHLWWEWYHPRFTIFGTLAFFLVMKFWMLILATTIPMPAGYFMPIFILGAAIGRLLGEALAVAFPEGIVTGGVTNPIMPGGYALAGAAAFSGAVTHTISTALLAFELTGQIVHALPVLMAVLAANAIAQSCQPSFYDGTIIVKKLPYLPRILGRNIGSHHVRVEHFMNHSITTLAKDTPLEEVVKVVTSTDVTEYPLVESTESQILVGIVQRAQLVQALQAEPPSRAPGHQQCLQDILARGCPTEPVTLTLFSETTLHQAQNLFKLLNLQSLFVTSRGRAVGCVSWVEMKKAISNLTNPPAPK

binding [1]: binds | binding [2]: binds
B1: WT barttin-mCherry (protein, UniProt Q8WZ55 1-320)
chain: MADEKTFRIGFIVLGLFLLALGTFLMSHDRPQVYGTFYAMGSVMVIGGIIWSMCQCYPKITFVPADSDFQGILSPKAMGLLENGLAAEMKSPSPQPPYVRLWEEAAYDQSLPDFSHIQMKVMSYSEDHRSLLAPEMGQPKLGTSDGGEGGPGDVQAWMEAAVVIHKGSDESEGERRLTQSWPGPLACPQGPAPLASFQDDLDMDSSEGSSPNASPHDREEACSPQQEPQGCRCPLDRFQDFALIDAPTLEDEPQEGQQWEIALPNNWQRYPRTKVEEKEASDTGGEEPEKEEEDLYYGLPDGAGDLLPDKELGFEPDTQG

binding [1]: binds | binding [2]: binds
B2: V33L barttin-mCherry (protein, UniProt Q8WZ55 1-320)
chain: B1 chain with V33L
